This assay concerns the target RORγ518 (human RORγ ligand binding domain, residues 259-518) (human) (UniProt P51449). In words: SEC; Superdex 75 in 25 mM TRIS pH 8.0, 250 mM NaCl, 5 % glycerol, 2 mM DTT, after removal of GST; both purified. (In gel filtration, larger molecules generally elute earlier.)

Sequences of proteins named here, by UniProt entry; tags and fusion partners are left off. Residues count along the entry.
UniProt P51449, residues 259-518: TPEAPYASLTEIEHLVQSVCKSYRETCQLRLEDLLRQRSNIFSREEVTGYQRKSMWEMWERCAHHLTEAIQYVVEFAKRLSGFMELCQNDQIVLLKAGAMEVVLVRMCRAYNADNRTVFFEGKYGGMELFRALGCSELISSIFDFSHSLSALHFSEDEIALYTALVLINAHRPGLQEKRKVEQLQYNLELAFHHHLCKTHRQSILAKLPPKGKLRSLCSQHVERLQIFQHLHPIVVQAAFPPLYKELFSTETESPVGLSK

Results are given in words; binding and its absence hold for the method and conditions named.

Consider “RORγ518 (human RORγ ligand binding domain, residues 259-518) (from UniProt P51449 259-518) (domain or fragment)”, for which the binding entry was “no binding”.

The values are drawn from publication PMC4888278, “Structural determinant for inducing RORgamma specific inverse agonism triggered by a synthetic benzoxazinone ligand” (BMC Structural Biology, 2016).
